Test in all cases: log2 fold change, soluble protein after heating vs DMSO (PISA); higher = thermal stabilisation; K562 lysate, 10 uM; active = over 0.2 and 3.5 SD of the protein, either way, in both replicates (recomputed)
Compound in one test: CCCS(=O)(=O)Nc1ccc(F)c(C(=O)c2c[nH]c3ncc(-c4ccc(Cl)cc4)cc23)c1F [vemurafenib]
The procedure, abridged: (§1)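 Values give the log-two fold change in thermal stability against solvent controls, from duplicates. Crude K562 extract at 1 mg/mL protein, made by dounce homogenisation in PBS pH 7.4 with 1 mM MgCl2, was treated with 10 μM compound for 30 min. After 3 min heating across 48°C-58°C, aliquots were pooled, adjusted to 0.5% NP-40 at 4°C and centrifuged at 21,000xg for 90 min. The supernatant was measured by TMTpro 16plex LC-MS/MS with channel sums equalised.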

By UniProt entry, the sequences of proteins in these tests, tags left out. Where a name states a change or a piece, a line headed by the entry shows the natural chain unless it says otherwise.
UniProt Q15642: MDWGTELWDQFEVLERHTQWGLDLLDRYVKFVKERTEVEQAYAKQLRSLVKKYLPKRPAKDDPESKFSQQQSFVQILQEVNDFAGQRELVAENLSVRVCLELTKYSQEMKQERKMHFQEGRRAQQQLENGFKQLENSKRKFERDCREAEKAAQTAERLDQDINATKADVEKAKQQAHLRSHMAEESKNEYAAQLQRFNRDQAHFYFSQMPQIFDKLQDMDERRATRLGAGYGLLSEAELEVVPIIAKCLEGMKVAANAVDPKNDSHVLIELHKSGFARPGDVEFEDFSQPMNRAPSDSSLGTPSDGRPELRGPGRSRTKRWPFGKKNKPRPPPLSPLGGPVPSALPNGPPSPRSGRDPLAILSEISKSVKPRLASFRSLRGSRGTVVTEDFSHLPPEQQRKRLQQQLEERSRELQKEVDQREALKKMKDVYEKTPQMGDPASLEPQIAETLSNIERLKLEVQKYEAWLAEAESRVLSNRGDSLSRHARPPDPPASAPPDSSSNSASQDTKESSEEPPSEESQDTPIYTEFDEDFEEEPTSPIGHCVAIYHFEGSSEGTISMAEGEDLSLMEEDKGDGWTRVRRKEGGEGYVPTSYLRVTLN
UniProt O75865, whole entry, looked up: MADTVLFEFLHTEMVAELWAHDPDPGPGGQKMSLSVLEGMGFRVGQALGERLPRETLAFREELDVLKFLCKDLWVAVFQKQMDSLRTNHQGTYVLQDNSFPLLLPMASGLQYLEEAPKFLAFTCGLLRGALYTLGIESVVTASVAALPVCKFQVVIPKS
UniProt Q8N5M4: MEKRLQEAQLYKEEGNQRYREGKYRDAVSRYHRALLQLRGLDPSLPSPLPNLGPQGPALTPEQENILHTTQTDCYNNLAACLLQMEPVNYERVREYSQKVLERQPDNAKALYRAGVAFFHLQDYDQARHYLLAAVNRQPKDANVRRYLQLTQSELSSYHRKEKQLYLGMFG
UniProt Q6NXR4: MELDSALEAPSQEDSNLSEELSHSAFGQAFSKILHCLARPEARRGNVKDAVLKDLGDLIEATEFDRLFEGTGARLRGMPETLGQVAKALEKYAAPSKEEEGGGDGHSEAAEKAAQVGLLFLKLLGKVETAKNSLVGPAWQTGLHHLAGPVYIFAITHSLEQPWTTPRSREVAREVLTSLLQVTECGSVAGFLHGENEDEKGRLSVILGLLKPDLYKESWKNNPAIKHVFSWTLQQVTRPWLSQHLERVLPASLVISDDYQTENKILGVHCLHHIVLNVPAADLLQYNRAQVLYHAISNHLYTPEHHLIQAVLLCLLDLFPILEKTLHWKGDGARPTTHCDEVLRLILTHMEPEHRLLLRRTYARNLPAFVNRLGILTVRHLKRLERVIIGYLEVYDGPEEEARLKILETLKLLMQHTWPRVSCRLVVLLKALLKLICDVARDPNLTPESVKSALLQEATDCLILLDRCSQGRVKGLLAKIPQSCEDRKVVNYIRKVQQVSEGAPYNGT
UniProt Q15631: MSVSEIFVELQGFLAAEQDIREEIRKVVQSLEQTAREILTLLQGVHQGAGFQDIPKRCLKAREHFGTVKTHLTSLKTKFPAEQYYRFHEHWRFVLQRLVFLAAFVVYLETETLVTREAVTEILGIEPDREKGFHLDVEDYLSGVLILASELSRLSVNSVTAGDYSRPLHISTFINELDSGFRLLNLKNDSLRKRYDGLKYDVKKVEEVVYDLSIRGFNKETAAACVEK
UniProt Q14166: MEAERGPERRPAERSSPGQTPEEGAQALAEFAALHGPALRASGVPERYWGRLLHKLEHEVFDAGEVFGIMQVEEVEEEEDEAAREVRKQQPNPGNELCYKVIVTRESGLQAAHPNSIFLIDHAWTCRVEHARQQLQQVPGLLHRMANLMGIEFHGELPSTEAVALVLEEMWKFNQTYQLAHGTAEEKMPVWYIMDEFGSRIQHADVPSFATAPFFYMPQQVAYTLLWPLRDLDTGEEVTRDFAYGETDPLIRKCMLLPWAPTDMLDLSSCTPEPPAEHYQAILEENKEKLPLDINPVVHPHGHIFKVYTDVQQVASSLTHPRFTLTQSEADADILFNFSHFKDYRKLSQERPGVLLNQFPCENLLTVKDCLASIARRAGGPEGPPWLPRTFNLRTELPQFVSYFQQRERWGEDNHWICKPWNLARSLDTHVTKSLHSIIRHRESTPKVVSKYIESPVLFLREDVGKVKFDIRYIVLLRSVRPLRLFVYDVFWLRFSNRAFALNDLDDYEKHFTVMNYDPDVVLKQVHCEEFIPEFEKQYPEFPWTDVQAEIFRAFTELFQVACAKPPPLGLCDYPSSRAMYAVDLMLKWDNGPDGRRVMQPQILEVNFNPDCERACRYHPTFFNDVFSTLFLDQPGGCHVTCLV
UniProt Q13049: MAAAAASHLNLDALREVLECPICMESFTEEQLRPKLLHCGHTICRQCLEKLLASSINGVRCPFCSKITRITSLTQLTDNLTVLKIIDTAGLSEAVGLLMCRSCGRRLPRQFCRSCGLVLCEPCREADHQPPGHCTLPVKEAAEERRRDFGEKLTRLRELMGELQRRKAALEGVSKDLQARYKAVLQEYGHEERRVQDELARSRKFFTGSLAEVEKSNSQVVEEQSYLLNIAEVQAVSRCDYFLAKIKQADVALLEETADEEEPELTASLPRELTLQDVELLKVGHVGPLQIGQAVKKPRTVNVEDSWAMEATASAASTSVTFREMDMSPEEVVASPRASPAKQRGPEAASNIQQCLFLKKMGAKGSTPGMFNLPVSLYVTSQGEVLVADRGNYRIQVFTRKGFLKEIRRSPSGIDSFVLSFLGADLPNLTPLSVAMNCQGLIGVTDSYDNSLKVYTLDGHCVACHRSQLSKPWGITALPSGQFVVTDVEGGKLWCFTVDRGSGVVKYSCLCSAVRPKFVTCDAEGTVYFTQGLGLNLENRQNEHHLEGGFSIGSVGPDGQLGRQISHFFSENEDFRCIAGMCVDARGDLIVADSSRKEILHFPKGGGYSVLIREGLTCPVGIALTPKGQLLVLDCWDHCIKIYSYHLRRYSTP
UniProt Q8NG06: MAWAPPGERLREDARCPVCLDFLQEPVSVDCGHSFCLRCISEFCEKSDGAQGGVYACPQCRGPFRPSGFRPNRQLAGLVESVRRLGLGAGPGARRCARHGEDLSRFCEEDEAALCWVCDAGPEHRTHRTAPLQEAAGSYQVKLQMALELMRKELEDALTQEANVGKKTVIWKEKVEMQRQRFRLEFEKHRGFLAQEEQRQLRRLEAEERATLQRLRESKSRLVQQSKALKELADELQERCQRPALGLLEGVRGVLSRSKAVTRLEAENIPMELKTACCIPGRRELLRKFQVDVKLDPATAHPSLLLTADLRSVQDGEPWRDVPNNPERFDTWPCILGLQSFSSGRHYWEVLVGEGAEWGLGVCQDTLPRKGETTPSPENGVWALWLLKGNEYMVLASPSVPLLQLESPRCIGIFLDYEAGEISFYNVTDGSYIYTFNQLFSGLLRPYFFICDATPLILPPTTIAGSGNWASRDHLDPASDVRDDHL
UniProt Q96QT4: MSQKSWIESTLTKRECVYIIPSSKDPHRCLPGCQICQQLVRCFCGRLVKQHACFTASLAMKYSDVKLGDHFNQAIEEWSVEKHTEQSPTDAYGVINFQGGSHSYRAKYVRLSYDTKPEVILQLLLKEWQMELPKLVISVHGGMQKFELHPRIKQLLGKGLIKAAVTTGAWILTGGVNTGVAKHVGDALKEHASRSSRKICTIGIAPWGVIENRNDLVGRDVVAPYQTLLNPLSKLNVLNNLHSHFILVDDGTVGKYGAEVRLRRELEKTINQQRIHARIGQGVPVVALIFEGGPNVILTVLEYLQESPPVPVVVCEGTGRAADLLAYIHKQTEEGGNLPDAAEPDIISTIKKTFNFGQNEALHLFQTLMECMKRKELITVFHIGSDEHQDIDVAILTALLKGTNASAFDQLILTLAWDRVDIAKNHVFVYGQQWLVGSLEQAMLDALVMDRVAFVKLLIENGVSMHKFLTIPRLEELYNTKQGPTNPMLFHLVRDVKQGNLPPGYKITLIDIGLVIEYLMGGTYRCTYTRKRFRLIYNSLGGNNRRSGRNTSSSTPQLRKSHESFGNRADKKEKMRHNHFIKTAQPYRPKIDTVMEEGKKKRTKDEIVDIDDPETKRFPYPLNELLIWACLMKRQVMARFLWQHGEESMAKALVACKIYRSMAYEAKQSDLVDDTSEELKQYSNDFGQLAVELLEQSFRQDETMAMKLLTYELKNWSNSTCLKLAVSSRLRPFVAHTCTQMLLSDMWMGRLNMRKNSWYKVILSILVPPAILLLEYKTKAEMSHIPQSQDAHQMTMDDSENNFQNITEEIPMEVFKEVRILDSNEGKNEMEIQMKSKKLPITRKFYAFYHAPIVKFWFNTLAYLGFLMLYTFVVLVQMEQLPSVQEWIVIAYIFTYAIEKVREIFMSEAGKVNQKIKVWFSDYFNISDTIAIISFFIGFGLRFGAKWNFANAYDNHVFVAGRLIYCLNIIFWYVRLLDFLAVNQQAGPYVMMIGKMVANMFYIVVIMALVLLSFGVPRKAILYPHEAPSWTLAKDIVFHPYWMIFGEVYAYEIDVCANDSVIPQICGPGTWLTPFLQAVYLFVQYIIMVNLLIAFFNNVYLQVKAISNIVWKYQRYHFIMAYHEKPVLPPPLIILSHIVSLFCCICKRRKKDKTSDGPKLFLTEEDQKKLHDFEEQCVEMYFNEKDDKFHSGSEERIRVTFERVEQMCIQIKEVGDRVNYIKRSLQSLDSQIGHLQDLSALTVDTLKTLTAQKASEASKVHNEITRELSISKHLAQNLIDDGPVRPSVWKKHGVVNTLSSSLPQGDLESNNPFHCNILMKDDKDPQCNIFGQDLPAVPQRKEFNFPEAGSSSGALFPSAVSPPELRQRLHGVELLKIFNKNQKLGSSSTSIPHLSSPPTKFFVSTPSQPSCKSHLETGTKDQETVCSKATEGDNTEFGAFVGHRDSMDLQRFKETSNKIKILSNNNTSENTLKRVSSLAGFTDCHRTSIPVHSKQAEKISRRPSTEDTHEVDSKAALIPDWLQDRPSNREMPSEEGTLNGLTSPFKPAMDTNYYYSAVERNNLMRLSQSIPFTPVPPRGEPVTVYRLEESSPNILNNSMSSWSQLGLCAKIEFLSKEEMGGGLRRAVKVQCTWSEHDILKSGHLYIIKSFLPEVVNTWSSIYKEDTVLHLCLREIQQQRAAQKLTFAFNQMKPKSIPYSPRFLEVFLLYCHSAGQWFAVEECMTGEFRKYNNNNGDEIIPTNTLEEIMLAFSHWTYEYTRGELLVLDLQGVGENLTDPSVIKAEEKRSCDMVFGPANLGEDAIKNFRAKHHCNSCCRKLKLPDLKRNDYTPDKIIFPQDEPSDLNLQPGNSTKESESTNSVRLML
UniProt Q5VTQ0: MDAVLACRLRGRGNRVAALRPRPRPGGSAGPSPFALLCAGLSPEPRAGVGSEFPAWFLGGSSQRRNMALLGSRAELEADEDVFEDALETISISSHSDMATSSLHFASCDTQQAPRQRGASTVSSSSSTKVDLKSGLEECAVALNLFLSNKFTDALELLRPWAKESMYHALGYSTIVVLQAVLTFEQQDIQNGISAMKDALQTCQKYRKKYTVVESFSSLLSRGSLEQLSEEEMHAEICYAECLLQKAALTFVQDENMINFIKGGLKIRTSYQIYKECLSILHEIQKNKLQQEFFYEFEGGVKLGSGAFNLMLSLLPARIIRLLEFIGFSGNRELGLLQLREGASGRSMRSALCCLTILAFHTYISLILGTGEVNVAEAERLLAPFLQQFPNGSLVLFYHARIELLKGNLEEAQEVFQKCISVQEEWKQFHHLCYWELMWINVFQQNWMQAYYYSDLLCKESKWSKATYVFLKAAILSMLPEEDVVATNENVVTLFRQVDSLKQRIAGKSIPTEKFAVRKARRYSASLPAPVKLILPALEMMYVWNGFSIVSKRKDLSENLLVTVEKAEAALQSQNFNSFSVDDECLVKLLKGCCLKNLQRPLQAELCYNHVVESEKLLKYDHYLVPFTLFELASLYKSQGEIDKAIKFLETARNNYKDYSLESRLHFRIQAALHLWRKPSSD
UniProt P30536, whole entry, looked up: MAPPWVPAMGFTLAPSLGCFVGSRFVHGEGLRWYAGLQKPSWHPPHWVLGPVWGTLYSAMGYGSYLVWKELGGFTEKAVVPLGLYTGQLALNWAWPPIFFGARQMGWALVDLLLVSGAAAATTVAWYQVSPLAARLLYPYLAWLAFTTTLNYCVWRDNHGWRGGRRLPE

Compound in test [1]: CCCS(=O)(=O)Nc1ccc(F)c(C(=O)c2c[nH]c3ncc(Cl)cc23)c1F
The essentials:
as §1

Compound in the next test: CCN(CCCOc1ccc2c(Nc3cc(CC(=O)Nc4cccc(F)c4)[nH]n3)ncnc2c1)CCOP(=O)(O)O [barasertib]
The procedure, abridged:
as §1

Compound in test [2]: CC[C@@H]1C(=O)N(C)c2cnc(Nc3ccc(C(=O)NC4CCN(C)CC4)cc3OC)nc2N1C1CCCC1
The procedure, abridged: as §1

Compound in another test: CC[C@@H]1C(=O)N(C)c2cnc(Nc3ccc(C(=O)N[C@H]4CC[C@H](N5CCN(CC6CC6)CC5)CC4)cc3OC)nc2N1C(C)C [volasertib]
The essentials: as §1

Compound in test [3]: CCn1c(C(=O)N(C2CC2)C2CC2)cc2c3c(ncn3C)c(Nc3cc(C)n(C)n3)nc21
The procedure, abridged: as §1

Compound in test [4]: CCn1cc(-c2ccnc3[nH]c(-c4cccc(CN(C)C)c4)cc23)c(-c2ccc(NC(=O)N(C)C)cc2)n1
The procedure, abridged: as §1

Compound in test [5]: CN1CCC(CNc2ccc3ncc(-c4cccc(OC(F)(F)F)c4)n3n2)CC1
The procedure, abridged: as §1

Compound in the next test: CN1CCN(CCOc2cc(OC3CCOCC3)c3c(Nc4c(Cl)ccc5c4OCO5)ncnc3c2)CC1 [saracatinib]
The essentials: as §1

Compound in a further test: CN1CCN(c2nc(C3=C(c4c[nH]c5ccccc45)C(=O)NC3=O)c3ccccc3n2)CC1 [sotrastaurin]
The procedure, abridged:
as §1

Some of the results follow.

TRIP10 (UniProt Q15642): the log2 fold change with vemurafenib was inactive: 0.112; in test [1], inactive: -0.012; with barasertib it was inactive: 0.007; in test [2] it was inactive: -0.026; with volasertib, inactive: -0.017; in test [3], inactive: 0.002. The log2 fold change in [4] is inactive: -0.096; in [5], inactive: 0.035; in the test with saracatinib, inactive: 0.011; in the test with sotrastaurin, inactive: -0.001.
Regarding TTC27 (UniProt Q6P3X3), the log2 fold change is inactive: 0.015 with vemurafenib; inactive: 0.007 in [1]; inactive: 0.028 with barasertib; inactive: -0.07 in test [2]; inactive: -0.074 with volasertib; inactive: 0.015 in test [3]. Also, the log2 fold change is inactive: -0.085 in test [4], inactive: -0.058 in test [5], inactive: 0.055 with saracatinib and inactive: 0.051 in the test with sotrastaurin.
Take TRAPPC6A isoform 2 (UniProt O75865): the log2 fold change in the test with vemurafenib was inactive: -0.144; in [1] it was inactive: 0.027; with barasertib, inactive: -0.001; in [2], active: -0.288; in the test with volasertib, inactive: -0.035; in test [3], inactive: -0.072. The log2 fold change in test [4] is inactive: -0.228; in [5], inactive: -0.096; with saracatinib, inactive: 0.001; with sotrastaurin it was inactive: -0.042.
Consider TRAPPC2 isoform 3 (UniProt P0DI81), for which the log2 fold change was inactive: 0.048 with vemurafenib; inactive: 0.035 in [1]; inactive: 0.002 with barasertib; inactive: -0.015 in [2]; inactive: -0.02 in the test with volasertib; inactive: 0.03 in [3]. The log2 fold change in [4] was inactive: -0.014; in test [5] it was inactive: -0.01; in the test with saracatinib it was inactive: -0.035; in the test with sotrastaurin it was inactive: 0.06.
TTC9C (UniProt Q8N5M4): the log2 fold change with vemurafenib is inactive: 0.017; in test [1] it was inactive: -0.004; in the test with barasertib, inactive: -0.011; in test [2], inactive: 0.047; with volasertib, inactive: -0.043; in test [3], inactive: -0.051. The log2 fold change in test [4] is inactive: -0.266; in [5], inactive: 0.051; in the test with saracatinib, inactive: -0.022; with sotrastaurin, inactive: -0.004.
Take TRIM24 (UniProt O15164): the log2 fold change with vemurafenib is inactive: -0.008; in [1] it was inactive: 0.017; with barasertib it was inactive: 0.015; in test [2] it was inactive: -0.047; with volasertib, inactive: 0.012; in test [3], inactive: 0.016. The log2 fold change is inactive: 0.124 in [4], inactive: -0.056 in test [5], inactive: 0.05 in the test with saracatinib and inactive: 0.044 with sotrastaurin.
Turning to TTI2 (UniProt Q6NXR4), the log2 fold change with vemurafenib was inactive: -0.009; in test [1], inactive: 0; with barasertib it was inactive: 0.005; in [2] it was inactive: -0.022; with volasertib, inactive: -0.048; in test [3], inactive: -0.004. Further, the log2 fold change is inactive: 0 in test [4], inactive: 0.035 in [5], inactive: 0.037 with saracatinib and inactive: 0.031 in the test with sotrastaurin.
Regarding TSN (UniProt Q15631), the log2 fold change with vemurafenib was inactive: 0.019; in test [1], inactive: 0.005; with barasertib it was inactive: 0.012; in test [2], inactive: 0.029; with volasertib, inactive: 0.039; in test [3], inactive: -0.01. Besides, the log2 fold change is inactive: -0.088 in test [4], inactive: 0.082 in test [5], inactive: 0.005 in the test with saracatinib and inactive: -0.02 in the test with sotrastaurin.
On to TTLL12 (UniProt Q14166), for which the log2 fold change in the test with vemurafenib was inactive: 0.016; in test [1] it was inactive: 0.007; with barasertib, inactive: -0.001; in test [2], inactive: -0.07; with volasertib, inactive: -0.07; in test [3], inactive: 0.019. For the same target, the log2 fold change was inactive: -0.033 in test [4], inactive: 0.009 in test [5], inactive: 0.004 with saracatinib and inactive: 0.022 in the test with sotrastaurin.
In the case of TRIM32 (UniProt Q13049), the log2 fold change in the test with vemurafenib is inactive: 0.002; in test [1] it was inactive: 0.101; in the test with barasertib, inactive: 0.056; in [2] it was inactive: 0.062; with volasertib it was inactive: -0.155; in test [3], inactive: -0.028. The log2 fold change is inactive: -0.035 in test [4], inactive: -0.008 in test [5], inactive: -0.026 with saracatinib and inactive: 0.018 with sotrastaurin.
Consider TRIM58 (UniProt Q8NG06), for which the log2 fold change was inactive: 0.078 in the test with vemurafenib; inactive: 0.066 with barasertib; inactive: -0.058 in [2]; inactive: -0.033 in test [3]; inactive: 0.001 in test [4]; inactive: -0.061 in [5]. The log2 fold change with saracatinib was inactive: -0.002; in the test with sotrastaurin, inactive: 0.005.
As to TRPM7 (UniProt Q96QT4), the log2 fold change with vemurafenib was inactive: 0.035; in test [1], inactive: 0.074; in test [2] it was inactive: 0.028; with volasertib it was inactive: -0.028; in test [3], inactive: 0.081; in test [4] it was inactive: 0.152. Besides, the log2 fold change is inactive: -0.145 in test [5], inactive: 0.091 in the test with saracatinib and inactive: 0.03 with sotrastaurin.
As for TTC39B (UniProt Q5VTQ0), the log2 fold change with vemurafenib was inactive: 0.114; in test [1] it was inactive: 0.027; with barasertib, inactive: 0.271; with volasertib, inactive: -0.019; in [3], inactive: 0.029; with saracatinib, inactive: -0.024.
On to TSEN15, A0A2U3TZM3, for which the log2 fold change in the test with vemurafenib is inactive: -0.007; in [1] it was inactive: -0.004; with volasertib it was inactive: 0.165; in test [3], inactive: -0.29; in test [4], inactive: 0.116; in test [5], inactive: 0.506. Moreover, the log2 fold change with saracatinib is inactive: 0.301.
For the target TSPO (UniProt P30536), the log2 fold change is inactive: 0.021 with vemurafenib; inactive: 0.006 in [1]; inactive: 0.057 with barasertib; inactive: -0.094 in test [2]; inactive: 0.05 in the test with volasertib; inactive: -0.002 in [3]. For the same target, the log2 fold change is inactive: -0.223 in test [4], inactive: 0.054 in [5], inactive: 0.07 with saracatinib and inactive: 0.047 in the test with sotrastaurin.

For the origin of these results see the supplement of paper PMC10849652.
